Data as given in PubChem BioAssay AID1259308 (NCATS, 2017)

- Assay: 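Knock-downs that increase output of a recombinant reporter protein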 (primary screen)
- System: human HEK293 embryonic kidney cells stably expressing firefly luciferase (HEK-CMV-Luc2-Hygro)
- Reagents: single siRNA against human genes, 0.8 pmol siRNA per well
- Time to read-out: 72 h
- Measured: 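Reporter luminescence and viable-cell signal on separate replicate plates, given as percent of non-targeting control and median/MAD z-scores, plus per-cell luciferase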
- Scale: total luciferase, z-score and total luciferase, % of control: higher = more reporter protein produced
- Rule for the call: 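An siRNA counts as active if its total luciferase robust z-score exceeds 3; genes with two or more such siRNAs out of three were retested with fresh siRNAs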
- Meaning of the calls: active = raised luciferase; inactive = no rise
This is one part, drawn at random, of about 59,000 reagents. About 1,510 of all reagents (2.6%) were called active. 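Calls use total luciferase alone and ignore viability, so some active siRNAs may act by altering cell number.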 Reagents against one gene are numbered here. Not all columns of the deposit are shown.

EEF1A1 #1 | total luciferase, z-score: -0.309; total luciferase, % of control: 75.7; Outcome: inactive
EEF1A1 #2 | total luciferase, z-score: -0.937; total luciferase, % of control: 63.2; Outcome: inactive
EEF1A1 #3 | total luciferase, z-score: -1.28; total luciferase, % of control: 56.5; Outcome: inactive
RAG1 #1 | total luciferase, z-score: -0.905; total luciferase, % of control: 63.9; Outcome: inactive
RAG1 #2 | total luciferase, z-score: 1.12; total luciferase, % of control: 104; Outcome: inactive
RAG1 #3 | total luciferase, z-score: -0.663; total luciferase, % of control: 68.7; Outcome: inactive
PROSER1 #1 | total luciferase, z-score: 1.2; total luciferase, % of control: 106; Outcome: inactive
PROSER1 #2 | total luciferase, z-score: 4.1; total luciferase, % of control: 163; Outcome: active
PROSER1 #3 | total luciferase, z-score: 0.931; total luciferase, % of control: 100; Outcome: inactive
EIF3G #1 | total luciferase, z-score: -1.72; total luciferase, % of control: 47.6; Outcome: inactive
EIF3G #2 | total luciferase, z-score: -2.51; total luciferase, % of control: 32.1; Outcome: inactive
EIF3G #3 | total luciferase, z-score: -2.86; total luciferase, % of control: 25; Outcome: inactive
MIF #1 | total luciferase, z-score: 0.495; total luciferase, % of control: 91.7; Outcome: inactive
MIF #2 | total luciferase, z-score: -0.531; total luciferase, % of control: 71.3; Outcome: inactive
MIF #3 | total luciferase, z-score: 2.83; total luciferase, % of control: 138; Outcome: inactive
SLAIN1 #1 | total luciferase, z-score: 0.216; total luciferase, % of control: 86.2; Outcome: inactive
SLAIN1 #2 | total luciferase, z-score: -0.838; total luciferase, % of control: 65.2; Outcome: inactive
SLAIN1 #3 | total luciferase, z-score: 1.59; total luciferase, % of control: 114; Outcome: inactive
OR11G2 #1 | total luciferase, z-score: 0.992; total luciferase, % of control: 102; Outcome: inactive
OR11G2 #2 | total luciferase, z-score: -0.418; total luciferase, % of control: 73.6; Outcome: inactive
OR11G2 #3 | total luciferase, z-score: 2.22; total luciferase, % of control: 126; Outcome: inactive
NDUFB6 #1 | total luciferase, z-score: -1.83; total luciferase, % of control: 45.6; Outcome: inactive
NDUFB6 #2 | total luciferase, z-score: 0.52; total luciferase, % of control: 92.2; Outcome: inactive
NDUFB6 #3 | total luciferase, z-score: -0.6; total luciferase, % of control: 69.9; Outcome: inactive
DLEU1 #1 | total luciferase, z-score: -0.464; total luciferase, % of control: 72.6; Outcome: inactive
DLEU1 #2 | total luciferase, z-score: -0.0155; total luciferase, % of control: 81.6; Outcome: inactive
DLEU1 #3 | total luciferase, z-score: -0.156; total luciferase, % of control: 78.8; Outcome: inactive
ATP8A2 #1 | total luciferase, z-score: 1.44; total luciferase, % of control: 110; Outcome: inactive
ATP8A2 #2 | total luciferase, z-score: 0.0862; total luciferase, % of control: 83.6; Outcome: inactive
ATP8A2 #3 | total luciferase, z-score: 0.224; total luciferase, % of control: 86.3; Outcome: inactive
P2RX2 #1 | total luciferase, z-score: 0.288; total luciferase, % of control: 87.6; Outcome: inactive
P2RX2 #2 | total luciferase, z-score: -0.719; total luciferase, % of control: 67.6; Outcome: inactive
P2RX2 #3 | total luciferase, z-score: -0.0864; total luciferase, % of control: 80.2; Outcome: inactive

Laid out differently: 2 of the entries above.
target,reagent no.,"total luciferase, z-score","total luciferase, % of control",Outcome
MIF,3,2.83,138,inactive
SLAIN1,1,0.216,86.2,inactive
